Reference: US20110150795A1, “COSMETIC COMPOSITIONS COMPRISING EXOPOLYSACCHARIDES DERIVED FROM MICROBIAL MATS, AND USE THEREOF” (Innovactiv Inc., priority 2008, published 2011)
For at least one compound, name, drawing or mass did not settle the structure.

Test system: human keratinocytes
Experiment: Overall desquamation/differentiation gene expression profile in human keratinocytes
Assay type: cell-based
Conditions: 24 h
Description: This assay was performed in order to measure the effects of the EPSs on the induction of mRNA coding for differentiation proteins (filaggrin, loricrin, involucrin) and for stratum corneum tryptic enzyme involved in desquamation (kallikrein 5, 6 and 7). The relative expression of the selected markers was assayed using the “real time quantitative polymerase chain reaction” technology (RT-QPCR).
Keratinocytes were pre-cultivated in culture medium. At confluence, the culture medium was changed into assay medium (SFM without EGF and pituitary extract) containing or not (control) the test compound and the cells were incubated for 24 h at 37° C. and 5% CO2. At the end of the experiment, the cells were washed in PBS buffer and immediately frozen at −80° C. with 300 μl per well of Tri-reagent.
Primers couples allowing the amplification of a specific Polymerase Chain Reactions (PCR) product from each selected marker were used: Liver glyceraldehyde 3-phosphate dehydrogenase (G3PDH) was used as a reference marker in this experiment. The total RNA extraction was performed by Tri-Reagent™ according to the protocol. […]
Initially, the modulation of gene expression was evaluated on six EPSs at the first concentration (Table VIII). As a second step, it was evaluated on four EPSs at three concentrations (Table IX).

Question: Which “desquamation/differentiation gene expression profile” value does the source give for `CC1=C(/C=C/C(C)=C/C=C/C(C)=C/C(=O)O)C(C)(C)CCC1` [Retinoic acid] here?
Answer: Its value is “reverse differencing profile”.
